Measurements taken from PubChem BioAssay AID504467 (National Center for Advancing Translational Sciences (NCATS), 2011).
Out of some 330,000 compounds screened, about 7,700 (2.3%) were called active. This list was built around the results that the source calls inconclusive (neither active nor inactive); the mix of calls is not that of the screen. The call rests on the fitted dose curve; in most records, active means well fitted inhibition curve with a large enough effect; inconclusive means small, poorly fitted or top-dose-only effect, or effect the other way; inactive means flat fitted curve, though single readings scatter. Where the call is inconclusive, the potency comes from a doubtful curve fit.

assay: qHTS screen for small molecules that inhibit ELG1-dependent DNA repair in human embryonic kidney (HEK293T) cells expressing luciferase-tagged ELG1; details: HEK293T ELG1-luciferase reporter, luminescence, 16 h, DNA damage induced by 5-fluorouridine; activity change, negative = inhibition: at 46.1 µM (top of the series); further: nearly all actives have a fitted effect of over 55% in size
How it was run: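 5-Fluorouridine DNA damage + compound/DMSO, 2,000 cells/well, 16 h, 37 °C/5% CO2. ONE-Glo, 30 min RT, luminescence. Readout = decrease in reporter signal.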
On the % scale 0 is the no-effect control and ±100 the full control effect; potency means the concentration at half of the fitted maximal effect.

SMILES	Potency	activity change, negative = inhibition
Cc1cc(C)c2nc(N3CCC(C(=O)N4CCN(c5ncccn5)CC4)CC3)sc2c1	inconclusive: 29.1 µM [inhibitor, single point]	–
Cc1ccc2cc(C(c3nnnn3C3CCCC3)N3CCN(c4ccc(F)cc4)CC3)c(=O)[nH]c2c1 (stereo not drawn)	inconclusive: 18.4 µM [inhibitor, single point]	–
CN1/C(=C\C(=O)C[n+]2ccc3ccccc3c2)C(C)(C)c2ccccc21	active: 1.16 µM	–
COc1ccc(/C=C/C(=O)NC2CC3CCC2C3)cc1 (stereo not drawn)	inconclusive: 22.4 µM [activator, single point]	–
O=C(c1ccccc1Cl)N1CCCC(c2nc3c(nnn3Cc3ccccc3)c(=O)[nH]2)C1 (stereo not drawn)	inconclusive: 23.1 µM [inhibitor, partial curve, poor fit]	–
Cc1cc(C(=O)N/N=C2\CCCC(=O)C2)c2ccccc2n1	–	inactive: -5.68%
O=C(NCCc1ccccc1)c1ccc2c(c1)S(=O)(=O)N=C1CCCCCN12	inconclusive: 10.3 µM [activator, partial curve]	–
CCCCN(CC)Cc1ccc(CNC(=S)Nc2ccc(C)cc2Cl)o1	inconclusive: 1.83 µM [activator, partial curve]	–
Cc1cc(C)c(NC(=O)CS(=O)CC(=O)N2CCN(c3ccccc3)CC2)c(C)c1 (stereo not drawn)	inconclusive: 16.4 µM [inhibitor, partial curve, poor fit]	–
CC1=NN(c2ccccc2)C(=O)/C1=C/C=C/c1ccccc1	active: 20.6 µM	–
COc1ccc(C2Nc3ccccc3C(=O)N2c2ccc(Cl)cc2)cc1Cn1cc([N+](=O)[O-])cn1 (stereo not drawn)	inconclusive: 9.2 µM [activator, partial curve]	–
CCc1nc(Nc2ccc3c(c2)OCCO3)c2oc3ccccc3c2n1	inconclusive: 25.9 µM [inhibitor, single point]	–
O=C(c1ccco1)N1CCN(C(=O)C2CCCN(S(=O)(=O)c3cccc4nsnc34)C2)CC1 (stereo not drawn)	inconclusive: 18.4 µM [inhibitor, single point]	–
CC(=O)NCCC(=O)Nc1nc(-c2c[nH]c3ccccc23)cs1	–	inactive: 9.52%
Cc1ccc(C(=O)Nc2nnc(S(=O)(=O)N3CCN(c4ccc(F)cc4)CC3)s2)cc1	inconclusive: 13 µM [activator, partial curve]	–
O=C(CCCl)Nc1cc(SCCO)cc([N+](=O)[O-])c1	–	inactive: -2.5%
COc1cc(OC)cc(-c2nc(-c3cccs3)no2)c1	inconclusive: 13 µM [activator, partial curve]	–
CCCSc1nc2cc(OC)c(OC)cc2c(=N)n1CCCN1CCOCC1	–	inactive: -7.89%
C/C=C/C(O)c1ccc2ccccc2c1 (stereo not drawn)	inconclusive: 18.3 µM [inhibitor, single point]	–
CCC1CCCCN1Cc1nc2c(c(=O)n(C)c(=O)n2C)n1CC(C)C (stereo not drawn)	inconclusive: 29.1 µM [inhibitor, partial curve, poor fit]	–
CC1(C)CC(=O)C(C(O)c2ccccc2)C(C)(C)N1 (stereo not drawn)	–	inactive: -15.4%
CCN(C(=O)COC(=O)/C=C/c1cccc(Cl)c1)c1c(N)n(Cc2ccccc2)c(=O)[nH]c1=O	inconclusive: 29.1 µM [inhibitor, single point]	–

SMILES	Potency	activity change, negative = inhibition
O=C(Nc1ccccc1)Nc1ccncc1	inconclusive: 23.1 µM [activator, single point]	–
O=C(c1ccco1)N1CCN(S(=O)(=O)c2c(Cl)cccc2Cl)CC1	–	inactive: -6.65%
O=C(O)c1ccc(-c2nc(-c3ccccc3Cl)cs2)cc1	inconclusive: 13 µM [activator, partial curve]	–
CC1(C2CC2)NC(=O)N(CC(=O)Nc2ccccc2F)C1=O (stereo not drawn)	–	inactive: 4.21%
CCc1ccc(C(=O)COC(=O)c2cccc(N3C(=O)c4c(C)nc5ccccc5c4C3=O)c2)cc1	inconclusive: 12.6 µM [activator, single point]	–
CCN(CCO)Cc1csc2ccc(Cl)cc12	–	inactive: -4.3%
CO[C@H]1C=CO[C@@]2(C)Oc3c(C)c(O)c4c(O)c(c(C=NN5CCN(C)CC5)c(O)c4c3C2=O)NC(=O)C(C)=CC=C[C@H](C)[C@H](O)[C@@H](C)[C@@H](O)[C@@H](C)[C@H](OC(C)=O)[C@@H]1C	–	inactive: 0.097%
CC(=O)N1CCN(S(=O)(=O)c2cccc(C(=O)Nc3ccc(F)c(F)c3)c2)CC1	inconclusive: 23.1 µM [inhibitor, partial curve]	–
O=C(Cc1c[nH]c2ccccc12)Nc1nc2ccccc2[nH]1	inconclusive: 9.2 µM [activator, partial curve]	–
Cc1cc(C)n(CCNC(=O)c2ccc3c(c2)OCO3)n1	inconclusive: 16.4 µM [activator, single point]	–
CC(=O)c1c(C)[nH]c(C(=O)NCCc2cccc(C)c2)c1C	inconclusive: 13 µM [activator, partial curve]	–
O=c1c(Oc2ccccc2Br)c(C(F)(F)F)oc2c(CN3CCCC3)c(O)ccc12	inconclusive: 0.0651 µM [activator, partial curve, poor fit]	–
Cc1cc(OCC(=O)N2CCN(c3cccc(Cl)c3)CC2)c2c(C)c(C)c(=O)oc2c1	–	inactive: -3.64%
O=C(CNCc1cccs1)NC12CC3CC(CC(C3)C1)C2	inconclusive: 23.1 µM [activator, partial curve, poor fit]	–
CCCOC(=O)Cn1cnc2scc(-c3ccc(C)cc3)c2c1=O	inconclusive: 32.6 µM [inhibitor, partial curve, poor fit]	–
CC1C/C(=N\Nc2ccc(S(N)(=O)=O)cc2[N+](=O)[O-])CC(C)(C)C1 (stereo not drawn)	–	inactive: 1.9%
Cc1cc(=O)[nH]c(N/N=C/c2ccc(N(C)C)cc2)n1	inconclusive: 16.4 µM [activator, partial curve]	–
Cc1c(NS(=O)(=O)c2cc(Br)cc3c2N(C(=O)C2CC2)CC3)c(=O)n(-c2ccccc2)n1C	–	inactive: 14.7%
Cc1c(CN(C)C(=O)c2sc3cc(Cl)ccc3c2Cl)cnn1C	–	inactive: 2.01%
Cc1cc(=O)oc2ccc(OCC(=O)N3CCc4ccccc43)cc12	–	inactive: -18.6%
O=C(CNC(=O)c1ccc(Cl)cc1Cl)OCCOc1ccccc1	inconclusive: 29.1 µM [activator, single point]	–

2 entries drawn at random from those above:
SMILES	Potency	activity change, negative = inhibition
Cc1c(NS(=O)(=O)c2cc(Br)cc3c2N(C(=O)C2CC2)CC3)c(=O)n(-c2ccccc2)n1C	–	inactive: 14.7%
O=c1c(Oc2ccccc2Br)c(C(F)(F)F)oc2c(CN3CCCC3)c(O)ccc12	inconclusive: 0.0651 µM [activator, partial curve, poor fit]	–
